# Some of the results follow.
# Biological target: T1, OsSMF1 (Oryza sativa, UniProt Q6ZLB0 1-436)
# T1 sequence: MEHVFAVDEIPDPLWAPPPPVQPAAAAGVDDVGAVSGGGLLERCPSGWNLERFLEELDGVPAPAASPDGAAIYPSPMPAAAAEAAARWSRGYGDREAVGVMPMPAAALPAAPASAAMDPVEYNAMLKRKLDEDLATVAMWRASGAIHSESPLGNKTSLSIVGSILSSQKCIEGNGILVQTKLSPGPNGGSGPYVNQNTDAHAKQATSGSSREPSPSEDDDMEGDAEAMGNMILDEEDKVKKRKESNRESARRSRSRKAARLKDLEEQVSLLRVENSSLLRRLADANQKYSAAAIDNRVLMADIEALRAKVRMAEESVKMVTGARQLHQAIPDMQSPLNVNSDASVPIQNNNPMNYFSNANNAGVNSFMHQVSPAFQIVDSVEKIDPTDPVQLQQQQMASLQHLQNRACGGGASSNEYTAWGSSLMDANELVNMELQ
# Experiment: protein-binding microarray (RPBM); PBS, 2% BSA, 51.3 ng/ul salmon testes DNA, 50 uM zinc acetate, 200 nM TF, 25 C, 1 h; high values mean tight binding
# Conditions: protein: recombinant; tags: N-terminal polyhistidine and DsRed monomer fusion (pET32a); chain copies: 2; label: CyDye5-dUTP incorporated in the synthesized complementary strand; 3' TTTTT single-stranded linker to array surface; dsDNA, one strand shown
# In short: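 Binding signal is defined as the fluorescence intensity of each feature in arbitrary units, read on an Axon 4000B scanner. Transcription factors with N-terminal polyhistidine and DsRed fusions came from E. coli BL21-CodonPlus and were purified on Ni–NTA. They were incubated at 200 nM for 1 h at 25 °C on a custom Agilent array that had been made double-stranded with Cy5-dUTP, with 50 µM zinc acetate present, and the array was washed.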
row,Sequence,binding signal
1,GACCGGTGGGGCTTCCTCTCGTTGGCAGCCTCCCATTCATCGGAGTCACCTAGTGCAG,4730 fluorescence intensity (a.u.)
2,TCACTTTCGCTGAGGTGGAACAATGGCGTGGCAACTTTTGCGGAGTCACCTAGTGCAG,12000 fluorescence intensity (a.u.)
3,GCAGAAGAACACCCATAGGCCGCTCGTGACTGAGGCGCCGCGGAGTCACCTAGTGCAG,3770 fluorescence intensity (a.u.)
4,GTGTGCTTAACATCATTGCCACGCCTGAAATACTTTCACCCGGAGTCACCTAGTGCAG,6060 fluorescence intensity (a.u.)
5,CTTAAATCCAGTACGGTTATCAGCATGCCCACGTCCACGTCGGAGTCACCTAGTGCAG,3290 fluorescence intensity (a.u.)
6,TCGAGTAAGGTGAACTTATTCCTCATCGAATTGGTGTTACCGGAGTCACCTAGTGCAG,3490 fluorescence intensity (a.u.)
7,CCGGCATTGCCATCAGATGACGTCATGGTTCAGCAATTTCCGGAGTCACCTAGTGCAG,6810 fluorescence intensity (a.u.)
8,GCCCCGACACCCGGCGTTCCACGTCCGGCTTTTGCATCTTCGGAGTCACCTAGTGCAG,3930 fluorescence intensity (a.u.)
9,GGCATCAGCTCAGCTAGCTAGCCACGATAGCAATGGGGCGCGGAGTCACCTAGTGCAG,3300 fluorescence intensity (a.u.)
10,GTAGCGAGTTCAATGTGACACGACGTGTCGGTGACACCAACGGAGTCACCTAGTGCAG,6270 fluorescence intensity (a.u.)
11,TTTATGATGTTGTCAGCTACAGTGGAATTGTGCTTACAACCGGAGTCACCTAGTGCAG,3210 fluorescence intensity (a.u.)
12,TCCGTCGTTCCGTGTTGGCCCACGCTGCCGCCGCGCGCCGCGGAGTCACCTAGTGCAG,3440 fluorescence intensity (a.u.)
13,AATGTGGGAGAAGGGGAGGAGAGAGGGGAGGGGAGGGGACCGGAGTCACCTAGTGCAG,6010 fluorescence intensity (a.u.)
14,GTGACATCCTTGCAATCCCACTGCCAGGTAAACAAACTCTCGGAGTCACCTAGTGCAG,3260 fluorescence intensity (a.u.)
15,GCGGCGCGCGGTTGGGGAGGGGCGGGGACGCGTGAGAGCGCGGAGTCACCTAGTGCAG,6160 fluorescence intensity (a.u.)
16,GGTATTTTACTACCTTGGGGAGCTAAACGATGCACTGTCCCGGAGTCACCTAGTGCAG,24300 fluorescence intensity (a.u.)
17,TCGTCGTCGGTGCGGCGCCGCCAGGGAAAATGGAGTCATCCGGAGTCACCTAGTGCAG,4060 fluorescence intensity (a.u.)
18,CCTCCCTCCCGTGTGGTAGCCATGACAAGGCGGATGCGATCGGAGTCACCTAGTGCAG,4600 fluorescence intensity (a.u.)
19,TAAAAGAATACCACCACCACCTGGCCGGGCCCACTTCCAGCGGAGTCACCTAGTGCAG,26000 fluorescence intensity (a.u.)
20,AGCTCGTGTCGGCCCGTACACGTCATCCCCGGGCCCACCCCGGAGTCACCTAGTGCAG,21800 fluorescence intensity (a.u.)
21,ACCAAGGAACATTGTTTGCACCAGTTTTGATGGTTGGAGGCGGAGTCACCTAGTGCAG,4250 fluorescence intensity (a.u.)

row,Sequence,binding signal
1,TCTCCACTCCCAGTGGCACCTCGCTGCCTAGCGCGACGTACGGAGTCACCTAGTGCAG,3260 fluorescence intensity (a.u.)
2,GATCCAAAATGGGTGAGCCCAGTGGAGCCCCATTCGGCCACGGAGTCACCTAGTGCAG,5590 fluorescence intensity (a.u.)
3,GGCTCTTCTGTTGTACACCGATTTATTTATTTGATGCATGCGGAGTCACCTAGTGCAG,3390 fluorescence intensity (a.u.)
4,AGCCCGATTTTCTGTTCATTTCCACGTTTGATTTGGTGCACGGAGTCACCTAGTGCAG,3970 fluorescence intensity (a.u.)
5,GTTGAGTTGGGCCCACCTGTCAGCTAACACTATGATGGGCCGGAGTCACCTAGTGCAG,3650 fluorescence intensity (a.u.)
6,AACGTGACGTGCAACAATTTTCACGTATGCTCAGTTCTTCCGGAGTCACCTAGTGCAG,5770 fluorescence intensity (a.u.)
7,CGACGGCCACAACCGGTTGTGGCGGCGTCTGCGTTGGCAGCGGAGTCACCTAGTGCAG,5430 fluorescence intensity (a.u.)
8,CGACCGCAAGCTCGCCGCGTCGATGCTCTCCAGCTCTCCCCGGAGTCACCTAGTGCAG,3340 fluorescence intensity (a.u.)
9,TGTATTGATGTTTCATATATGCATGTATTGATGTTTGTTTCGGAGTCACCTAGTGCAG,3260 fluorescence intensity (a.u.)
10,ATTTTCAGGCCAACCAACTAACACGGCAAGTGAGATGCTTCGGAGTCACCTAGTGCAG,3340 fluorescence intensity (a.u.)
11,GCTGGGCTGACGTGTTACACCCCTGGCAAATCCAGCGTGGCGGAGTCACCTAGTGCAG,15200 fluorescence intensity (a.u.)
12,GCACTAACCTGGGCTACATGATTTTCCAAGTCAGCACTTACGGAGTCACCTAGTGCAG,7320 fluorescence intensity (a.u.)
13,CCCGTTCGCTGGCCGAAGCTCCGCCGTCAGACATGACGCCCGGAGTCACCTAGTGCAG,3650 fluorescence intensity (a.u.)
14,TCTACTGTGTGTGTGTGTGTGTGTGTTCACTACTGGATAGCGGAGTCACCTAGTGCAG,3160 fluorescence intensity (a.u.)
15,ATATAGGACTTGCCAACAGTGATTGACCTCACAGGCTCACCGGAGTCACCTAGTGCAG,3380 fluorescence intensity (a.u.)
16,AGCATCTTCGCTTGTGGTGCCGCACTGCCACCTACCCATCCGGAGTCACCTAGTGCAG,3940 fluorescence intensity (a.u.)
17,TCACTTCTCTCCTCCACATGTGCATACAACTGACTTATAACGGAGTCACCTAGTGCAG,4660 fluorescence intensity (a.u.)
18,AGGCAAGACGATATGCATGACGCTGTAGGTGGAAAGTTGGCGGAGTCACCTAGTGCAG,3300 fluorescence intensity (a.u.)
19,TTGGACTAGGGTGGTGGCGTGTCAAGTGGACAACACGACGCGGAGTCACCTAGTGCAG,5600 fluorescence intensity (a.u.)
20,TATATATATATATATAGACACACACGTGGGATAAGGAGAACGGAGTCACCTAGTGCAG,5540 fluorescence intensity (a.u.)
21,TCCAATCAGACGACTATTCCTATGTTTTACAATTCTCTATCGGAGTCACCTAGTGCAG,51200 fluorescence intensity (a.u.)

# Looked up one by one from above, 2 records:
row,Sequence,binding signal
8,CGACCGCAAGCTCGCCGCGTCGATGCTCTCCAGCTCTCCCCGGAGTCACCTAGTGCAG,3340 fluorescence intensity (a.u.)
14,TCTACTGTGTGTGTGTGTGTGTGTGTTCACTACTGGATAGCGGAGTCACCTAGTGCAG,3160 fluorescence intensity (a.u.)

# From paper PMC7819943, “Rice protein-binding microarrays: a tool to detect cis-acting elements near promoter regions in rice”
